Assay results: the supplement of paper PMC12067093, “Discovery and optimisation of a covalent ligand for TRIM25 and its application to targeted protein ubiquitination” (Chemical Science, 2025)
Some of the results follow.

Amino acid sequences for entries named in this document (tags omitted). A change or cut given only in a name is not applied to a line headed by its entry.
UniProt O95782: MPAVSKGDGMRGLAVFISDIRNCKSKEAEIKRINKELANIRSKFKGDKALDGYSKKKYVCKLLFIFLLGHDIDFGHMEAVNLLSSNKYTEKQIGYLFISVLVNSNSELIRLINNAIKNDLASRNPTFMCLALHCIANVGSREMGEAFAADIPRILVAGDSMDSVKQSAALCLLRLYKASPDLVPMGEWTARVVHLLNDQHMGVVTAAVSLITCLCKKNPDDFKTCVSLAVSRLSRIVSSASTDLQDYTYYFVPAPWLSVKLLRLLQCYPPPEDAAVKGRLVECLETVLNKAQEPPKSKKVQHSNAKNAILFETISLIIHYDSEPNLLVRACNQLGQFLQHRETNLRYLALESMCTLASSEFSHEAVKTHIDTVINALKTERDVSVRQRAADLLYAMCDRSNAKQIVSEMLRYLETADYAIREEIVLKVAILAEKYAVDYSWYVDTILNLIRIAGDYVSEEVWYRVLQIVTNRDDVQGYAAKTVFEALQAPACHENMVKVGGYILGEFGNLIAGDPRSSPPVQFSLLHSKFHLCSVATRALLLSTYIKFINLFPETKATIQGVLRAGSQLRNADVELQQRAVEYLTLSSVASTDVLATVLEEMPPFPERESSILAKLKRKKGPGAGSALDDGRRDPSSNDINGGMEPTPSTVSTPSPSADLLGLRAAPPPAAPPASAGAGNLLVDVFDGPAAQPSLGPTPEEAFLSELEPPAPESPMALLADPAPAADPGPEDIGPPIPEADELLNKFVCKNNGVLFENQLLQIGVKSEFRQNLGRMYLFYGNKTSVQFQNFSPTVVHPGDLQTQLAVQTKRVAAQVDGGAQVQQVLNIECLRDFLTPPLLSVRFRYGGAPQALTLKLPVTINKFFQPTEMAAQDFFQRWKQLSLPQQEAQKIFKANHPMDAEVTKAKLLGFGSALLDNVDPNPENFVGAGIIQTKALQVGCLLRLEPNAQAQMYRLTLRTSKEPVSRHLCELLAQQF
UniProt Q4KMQ2: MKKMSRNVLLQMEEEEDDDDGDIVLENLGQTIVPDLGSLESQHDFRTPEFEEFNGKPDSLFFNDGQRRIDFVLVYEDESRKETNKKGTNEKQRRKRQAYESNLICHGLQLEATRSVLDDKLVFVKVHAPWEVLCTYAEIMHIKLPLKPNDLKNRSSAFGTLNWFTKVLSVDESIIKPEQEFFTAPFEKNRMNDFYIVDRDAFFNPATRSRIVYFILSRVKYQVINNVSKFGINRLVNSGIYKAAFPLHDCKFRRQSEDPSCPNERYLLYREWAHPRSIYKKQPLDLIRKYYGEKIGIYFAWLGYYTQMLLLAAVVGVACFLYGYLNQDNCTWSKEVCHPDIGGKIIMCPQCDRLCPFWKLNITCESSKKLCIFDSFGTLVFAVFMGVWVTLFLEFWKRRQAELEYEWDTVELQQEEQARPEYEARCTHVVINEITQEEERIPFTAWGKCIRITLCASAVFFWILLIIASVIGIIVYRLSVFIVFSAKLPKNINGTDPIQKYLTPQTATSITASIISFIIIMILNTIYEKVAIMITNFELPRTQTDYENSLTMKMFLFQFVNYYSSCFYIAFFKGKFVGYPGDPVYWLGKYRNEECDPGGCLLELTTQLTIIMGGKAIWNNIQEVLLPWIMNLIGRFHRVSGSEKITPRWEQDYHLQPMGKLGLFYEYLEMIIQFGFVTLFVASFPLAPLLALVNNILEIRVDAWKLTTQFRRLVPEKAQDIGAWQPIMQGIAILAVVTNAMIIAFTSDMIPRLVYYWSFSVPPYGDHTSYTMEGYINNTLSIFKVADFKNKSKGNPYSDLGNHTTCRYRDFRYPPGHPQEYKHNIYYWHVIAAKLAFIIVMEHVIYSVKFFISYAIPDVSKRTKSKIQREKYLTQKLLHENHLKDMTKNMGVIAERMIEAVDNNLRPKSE
UniProt O14727: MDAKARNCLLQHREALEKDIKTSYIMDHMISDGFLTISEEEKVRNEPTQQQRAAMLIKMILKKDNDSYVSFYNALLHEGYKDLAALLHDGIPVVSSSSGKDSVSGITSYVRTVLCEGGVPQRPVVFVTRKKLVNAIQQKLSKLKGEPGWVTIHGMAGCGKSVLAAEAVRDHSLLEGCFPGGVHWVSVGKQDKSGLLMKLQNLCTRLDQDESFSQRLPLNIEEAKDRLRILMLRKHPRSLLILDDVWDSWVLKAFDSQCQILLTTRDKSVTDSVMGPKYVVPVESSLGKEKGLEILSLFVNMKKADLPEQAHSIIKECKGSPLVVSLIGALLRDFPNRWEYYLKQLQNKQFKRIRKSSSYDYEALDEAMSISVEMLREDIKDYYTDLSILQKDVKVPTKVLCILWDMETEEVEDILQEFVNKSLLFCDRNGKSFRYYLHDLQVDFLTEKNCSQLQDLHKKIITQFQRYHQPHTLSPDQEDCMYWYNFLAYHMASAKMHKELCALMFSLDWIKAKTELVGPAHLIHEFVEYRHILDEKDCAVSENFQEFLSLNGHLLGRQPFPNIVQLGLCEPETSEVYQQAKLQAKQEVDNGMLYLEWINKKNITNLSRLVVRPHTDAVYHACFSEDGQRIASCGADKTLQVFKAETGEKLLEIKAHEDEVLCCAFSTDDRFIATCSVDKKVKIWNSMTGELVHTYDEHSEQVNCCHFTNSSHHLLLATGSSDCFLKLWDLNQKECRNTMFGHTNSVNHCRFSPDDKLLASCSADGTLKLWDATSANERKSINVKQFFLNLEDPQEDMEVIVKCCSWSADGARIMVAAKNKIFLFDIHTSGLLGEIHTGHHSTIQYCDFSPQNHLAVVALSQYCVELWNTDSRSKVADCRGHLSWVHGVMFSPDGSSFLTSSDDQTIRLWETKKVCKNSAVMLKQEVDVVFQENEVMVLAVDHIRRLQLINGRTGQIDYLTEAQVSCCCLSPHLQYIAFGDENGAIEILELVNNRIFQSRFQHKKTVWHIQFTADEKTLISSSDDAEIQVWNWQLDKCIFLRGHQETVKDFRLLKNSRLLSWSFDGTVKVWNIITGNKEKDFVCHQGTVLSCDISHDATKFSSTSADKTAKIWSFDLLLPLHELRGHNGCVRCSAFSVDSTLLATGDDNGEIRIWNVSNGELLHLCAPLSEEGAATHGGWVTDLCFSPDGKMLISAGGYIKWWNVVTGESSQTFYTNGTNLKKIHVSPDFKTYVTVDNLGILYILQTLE
UniProt Q9Y6B7: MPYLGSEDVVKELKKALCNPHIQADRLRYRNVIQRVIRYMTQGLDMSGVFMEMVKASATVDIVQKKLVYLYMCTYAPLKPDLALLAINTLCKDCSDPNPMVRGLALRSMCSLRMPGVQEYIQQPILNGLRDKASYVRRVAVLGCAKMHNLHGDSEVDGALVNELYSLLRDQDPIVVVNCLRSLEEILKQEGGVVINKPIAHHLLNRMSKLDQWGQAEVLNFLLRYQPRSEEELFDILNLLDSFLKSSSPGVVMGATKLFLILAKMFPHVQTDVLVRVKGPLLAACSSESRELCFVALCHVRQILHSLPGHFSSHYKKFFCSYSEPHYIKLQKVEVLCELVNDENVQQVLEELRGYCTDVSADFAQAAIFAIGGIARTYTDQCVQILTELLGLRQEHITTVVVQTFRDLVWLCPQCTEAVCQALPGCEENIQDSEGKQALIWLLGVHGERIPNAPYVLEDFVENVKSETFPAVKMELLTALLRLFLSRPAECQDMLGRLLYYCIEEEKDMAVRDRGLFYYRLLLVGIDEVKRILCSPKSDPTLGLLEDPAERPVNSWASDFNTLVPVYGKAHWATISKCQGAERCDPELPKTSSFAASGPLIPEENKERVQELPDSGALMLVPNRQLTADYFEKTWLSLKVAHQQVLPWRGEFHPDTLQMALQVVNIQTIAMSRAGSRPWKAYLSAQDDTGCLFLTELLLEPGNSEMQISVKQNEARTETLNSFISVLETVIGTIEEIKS
UniProt O43747: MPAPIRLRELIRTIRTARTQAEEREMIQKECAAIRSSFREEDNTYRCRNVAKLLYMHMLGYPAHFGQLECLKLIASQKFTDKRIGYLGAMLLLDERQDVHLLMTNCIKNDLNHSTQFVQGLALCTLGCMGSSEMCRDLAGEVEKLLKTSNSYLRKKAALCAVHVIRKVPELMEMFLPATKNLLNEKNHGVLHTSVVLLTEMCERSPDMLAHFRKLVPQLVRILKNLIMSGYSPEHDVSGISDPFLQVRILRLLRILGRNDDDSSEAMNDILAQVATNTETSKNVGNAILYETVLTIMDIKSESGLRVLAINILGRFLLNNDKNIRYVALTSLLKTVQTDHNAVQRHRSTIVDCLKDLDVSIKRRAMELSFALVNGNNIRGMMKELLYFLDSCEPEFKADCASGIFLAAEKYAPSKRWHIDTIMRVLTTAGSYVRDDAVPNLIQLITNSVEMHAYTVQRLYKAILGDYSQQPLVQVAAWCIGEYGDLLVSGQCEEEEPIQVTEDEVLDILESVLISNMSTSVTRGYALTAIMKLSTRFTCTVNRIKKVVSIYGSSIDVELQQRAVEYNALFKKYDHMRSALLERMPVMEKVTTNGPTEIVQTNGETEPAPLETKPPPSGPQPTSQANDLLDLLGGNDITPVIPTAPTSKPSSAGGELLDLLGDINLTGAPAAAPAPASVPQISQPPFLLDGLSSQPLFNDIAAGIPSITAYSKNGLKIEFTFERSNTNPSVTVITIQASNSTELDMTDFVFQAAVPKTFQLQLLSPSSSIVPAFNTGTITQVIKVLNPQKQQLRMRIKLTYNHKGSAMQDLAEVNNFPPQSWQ
UniProt P27695, whole entry, looked up: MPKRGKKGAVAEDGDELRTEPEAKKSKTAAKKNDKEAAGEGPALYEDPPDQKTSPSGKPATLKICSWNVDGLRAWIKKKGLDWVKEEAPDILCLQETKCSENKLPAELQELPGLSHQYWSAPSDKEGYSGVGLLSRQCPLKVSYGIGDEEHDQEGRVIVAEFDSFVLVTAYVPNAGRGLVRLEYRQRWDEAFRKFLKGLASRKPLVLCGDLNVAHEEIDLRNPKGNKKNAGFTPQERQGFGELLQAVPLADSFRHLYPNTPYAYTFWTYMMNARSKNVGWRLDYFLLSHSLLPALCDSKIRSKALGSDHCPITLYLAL
UniProt Q9Y2T2: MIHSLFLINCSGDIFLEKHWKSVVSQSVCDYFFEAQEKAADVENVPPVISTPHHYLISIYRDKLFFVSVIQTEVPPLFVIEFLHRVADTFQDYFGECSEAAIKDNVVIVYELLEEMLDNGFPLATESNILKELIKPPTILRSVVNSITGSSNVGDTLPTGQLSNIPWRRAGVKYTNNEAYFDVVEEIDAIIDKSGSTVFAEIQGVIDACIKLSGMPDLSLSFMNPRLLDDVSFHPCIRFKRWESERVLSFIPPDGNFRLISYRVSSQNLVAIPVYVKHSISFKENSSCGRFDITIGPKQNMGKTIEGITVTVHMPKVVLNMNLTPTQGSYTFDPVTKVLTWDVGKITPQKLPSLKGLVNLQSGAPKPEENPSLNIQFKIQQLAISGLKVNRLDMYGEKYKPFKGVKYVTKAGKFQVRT
UniProt Q10567: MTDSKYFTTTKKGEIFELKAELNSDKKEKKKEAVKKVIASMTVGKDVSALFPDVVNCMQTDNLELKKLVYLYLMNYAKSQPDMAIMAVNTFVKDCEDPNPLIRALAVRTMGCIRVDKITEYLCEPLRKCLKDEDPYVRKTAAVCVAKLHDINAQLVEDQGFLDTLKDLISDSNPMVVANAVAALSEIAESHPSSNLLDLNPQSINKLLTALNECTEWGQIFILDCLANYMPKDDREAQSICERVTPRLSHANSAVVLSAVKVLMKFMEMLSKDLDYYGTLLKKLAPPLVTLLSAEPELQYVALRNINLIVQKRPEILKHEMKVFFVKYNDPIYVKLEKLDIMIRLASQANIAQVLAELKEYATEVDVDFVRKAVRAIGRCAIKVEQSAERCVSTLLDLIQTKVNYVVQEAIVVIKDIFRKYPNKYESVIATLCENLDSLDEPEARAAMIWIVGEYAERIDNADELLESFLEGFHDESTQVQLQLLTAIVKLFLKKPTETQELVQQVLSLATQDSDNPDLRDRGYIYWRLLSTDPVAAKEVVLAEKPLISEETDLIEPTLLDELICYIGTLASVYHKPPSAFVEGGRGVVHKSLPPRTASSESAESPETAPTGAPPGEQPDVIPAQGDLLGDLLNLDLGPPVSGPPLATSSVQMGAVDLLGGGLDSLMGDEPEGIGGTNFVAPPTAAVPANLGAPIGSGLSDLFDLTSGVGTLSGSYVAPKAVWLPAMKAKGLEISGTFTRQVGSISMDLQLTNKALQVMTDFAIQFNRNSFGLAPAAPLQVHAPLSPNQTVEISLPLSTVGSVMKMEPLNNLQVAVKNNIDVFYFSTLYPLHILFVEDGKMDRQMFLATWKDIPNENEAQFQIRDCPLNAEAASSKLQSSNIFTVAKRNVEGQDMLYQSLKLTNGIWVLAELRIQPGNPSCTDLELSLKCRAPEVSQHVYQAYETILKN

Compound: Cc1cc(ccc1-c1ccccc1)C(=O)N1CCCN(CC1)C(=O)CCl [compound 10]
Test: probe-labelled cysteine peptide fold change vs DMSO (competition) (log2 fold change); higher = less target engagement (more negative = stronger competition)
Settings: THP-1, incubation time: 4 h
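Note: competitive profiling in live THP-1 cells: cysteine peptides tagged with an iodoacetamide desthiobiotin (IA-DTB) probe, intensity after compound treatment relative to DMSO-treated cells.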

Target | probe-labelled cysteine peptide fold change (10 µM) | probe-labelled cysteine peptide fold change (50 µM)
AP2A1_O95782_941_ALQVGCLLR (UniProt O95782) | 0.223 | 0.492
ANKRD44_Q8N8A2_408_TCLHAAAAGGNVECIK (UniProt Q8N8A2) | 0.0536 | -0.313
ANO6_Q4KMQ2_134_VHAPWEVLCTYAEIMHIK (UniProt Q4KMQ2) | 0.0082 | -0.18
API5_Q9BZZ5_71_HFPELADSAINAQLDLCEDEDVSIRR (UniProt Q9BZZ5) | 0.0504 | 0.252
APAF1_O14727_450_NCSQLQDLHK (UniProt O14727) | -0.131 | 0.0472
ANLN_Q9NQW6_353_EICLQSQSK (UniProt Q9NQW6) | -0.243 | -0.271
ANXA11_P50995_384_FNAVLCSR (UniProt P50995) | -0.177 | -0.173
ANKRD17_O75179_1336_FCELLIGR (UniProt O75179) | 0.282 | -0.0934
APBB1IP_Q7Z5R6_213_THCDCNVDWCLYEIYPELQIER (UniProt Q7Z5R6) | 0.126 | 0.161
AP3D1_O14617_479_NGICEVLYAAAWICGEFSEHLQEPHHTLEAMLRPR (UniProt O14617) | -0.157 | 0.229
ANO6_Q4KMQ2_261_QSEDPSCPNER (UniProt Q4KMQ2) | -0.129 | 0.0969
APAF1_O14727_662_AHEDEVLCCAFSTDDR (UniProt O14727) | 0.218 | 0.309
AP4B1_Q9Y6B7_534_ILCSPK (UniProt Q9Y6B7) | -0.0169 | 0.287
AP1G1_O43747_106_QDVHLLMTNCIK (UniProt O43747) | 0.143 | 0.251
ANKLE2_Q86XL3_674_CSAFPLEQEADLIEAAEPGGPHSSR (UniProt Q86XL3) | -0.124 | -0.216
APEX1_P27695_93_GLDWVKEEAPDILCLQETK (UniProt P27695) | -0.315 | -0.706
APAF1_O14727_675_AHEDEVLCCAFSTDDRFIATCSVDK (UniProt O14727) | 0.114 | -0.0285
AP3M1_Q9Y2T2_209_SGSTVFAEIQGVIDACIK (UniProt Q9Y2T2) | 0.35 | 0.226
ANKRD17_O75179_714_GGHTSVVCYLLDYPNNLLSAPPPDVTQLTPPSHDLNR (UniProt O75179) | 0.104 | 0.197
AP4B1_Q9Y6B7_298_ELCFVALCHVR (UniProt Q9Y6B7) | -0.0896 | 0.184
AP1B1_Q10567_433_YESVIATLCENLDSLDEPEAR (UniProt Q10567) | 0.44 | 0.534
AP2A1_O95782_492_TVFEALQAPACHENMVK (UniProt O95782) | 0.0987 | 0.0873

Exported comma-delimited: entries from further up
Target,probe-labelled cysteine peptide fold change (10 µM),probe-labelled cysteine peptide fold change (50 µM)
APEX1_P27695_93_GLDWVKEEAPDILCLQETK (UniProt P27695),-0.315,-0.706
APAF1_O14727_675_AHEDEVLCCAFSTDDRFIATCSVDK (UniProt O14727),0.114,-0.0285
